In patent US20160340421A1:
Results are given in words; binding and its absence hold for the method and conditions named. Binding seen in cells or lysates may run through a third protein. Here binding means that the protein was enriched with, or labelled near, the bait; the list need not be complete.

Target: T1, mouse GDF8 (from serum of treated C57BL6 mice) (mouse) (UniProt O08689)
T1 sequence: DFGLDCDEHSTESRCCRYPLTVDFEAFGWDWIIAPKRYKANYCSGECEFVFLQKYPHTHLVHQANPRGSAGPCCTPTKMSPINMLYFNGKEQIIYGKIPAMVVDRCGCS
Assay: pull-down from serum of treated mice with anti human Fc beads, mass spectrometry

binding: binds
B1: H4H1657N2 (antibody, V domains shown)
VH: EVQVLESGGDLVQPGGSLRLSCAASGFTFSAYAMTWVRQAPGKGLEWVSAISGSGGSAYYADSVKGRFTISRDNSKNTVYLQMNSLRAEDTAVYYCAKDGAWKMSGLDVWGQGTTVIVSS
VL: DIQMTQSPASLSASVGDRVTITCRASQDISDYLAWYQQKPGKIPRLLIYTTSTLQSGVPSRFRGSGSGTDFTLTISSLQPEDVATYYCQKYDSAPLTFGGGTKVEIK
